{
  "source": "patent US10828266B2",
  "about": "“Topical regional neuro-affective therapy with caryophyllene” (Afgin Pharma, LLC, priority 2016, dated 2020)",
  "tested_on": "human patients",
  "experiment": "Inventor's observation of onset and duration of therapeutic effect after administration of caryophyllene at the back of the neck",
  "format": "in vivo",
  "conditions": "or more, depending on condition and severity of the condition being treated",
  "procedure": "The inventor has observed rapid therapeutic onset of action, generally, less than 10 to 15 minutes administration of caryophyllene at the back of the neck, with maximal benefit noted well within 30 minutes. In certain embodiments, a prolonged therapeutic effect has been noted, e.g., about 4 to about 12 hours or more, depending on condition and severity of the condition being treated.",
  "note": "At least one structure is not confirmed: it was looked up by name or label, or the drawing left a doubt.",
  "data": [
    {"smiles": "C=C1CC/C=C(\\C)CC[C@@H]2[C@@H]1CC2(C)C", "note": "(relative stereo) [caryophyllene, trans-(1R,9S)-8-Methylene-4,11,11-trimethylbicyclo[7.2.0]undec-4-ene]", "values": [
      {"measurement": "prolonged therapeutic effect (duration)", "value": "4 to about 12"}
    ]}
  ]
}
